Reference: the supplement of paper PMC8728848
Some of the results follow.

How the values were obtained:
Assay in all cases: glycan array binding signal (z-score within array); higher = stronger binding
Settings in all cases: glycan notation: IUPAC condensed, linker removed
Fuc(a1-2)Gal = biological target: Fuc(a1-2)Gal
In short: (§1)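 Glycan array binding is given as a within-array Z-score, which can be read as non-binding when negative. The arrays, 3228 of them, came from the Consortium for Functional Glycomics database and were retained only where the protein sequence was available. Z-scores were averaged across arrays of the same protein sequence at different concentrations or buffers and across linkers.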

Fuc(a1-2)Gal(b1-3)GalNAc = biological target: Fuc(a1-2)Gal(b1-3)GalNAc
In short: as §1

[1] = biological target: Fuc(a1-2)Gal(b1-3)GalNAc(b1-3)Gal
In short: as §1

[2] = biological target: Fuc(a1-2)Gal(b1-3)GalNAc(b1-3)Gal(a1-4)Gal(b1-4)Glc
In short: as §1

[3] = biological target: Fuc(a1-2)Gal(b1-3)GalNAc(b1-4)[Neu5Ac(a2-3)]Gal(b1-4)Glc
In short: as §1

Fuc(a1-2)Gal(b1-3)GlcNAc = biological target: Fuc(a1-2)Gal(b1-3)GlcNAc
In short: as §1

[4] = biological target: Fuc(a1-2)Gal(b1-3)GlcNAc(b1-3)Gal(b1-4)Glc
In short: as §1

[5] = biological target: Fuc(a1-2)Gal(b1-3)[Fuc(a1-4)]GlcNAc
In short: as §1

Fuc(a1-2)Gal(b1-4)Glc = biological target: Fuc(a1-2)Gal(b1-4)Glc
In short: as §1

Fuc(a1-2)Gal(b1-4)Glc6S = biological target: Fuc(a1-2)Gal(b1-4)Glc6S
In short: as §1

Fuc(a1-2)Gal(b1-4)GlcNAc = biological target: Fuc(a1-2)Gal(b1-4)GlcNAc
In short: as §1

[6] = biological target: Fuc(a1-2)Gal(b1-4)GlcNAc(b1-2)Man(a1-3)[Fuc(a1-2)Gal(b1-4)GlcNAc(b1-2)Man(a1-6)]Man(b1-4)GlcNAc(b1-4)GlcNAc
In short: as §1

[7] = biological target: Fuc(a1-2)Gal(b1-4)GlcNAc(b1-2)Man(a1-6)[Gal(b1-4)GlcNAc(b1-2)Man(a1-3)]Man(b1-4)GlcNAc(b1-4)GlcNAc
In short: as §1

[8] = biological target: Fuc(a1-2)Gal(b1-4)GlcNAc(b1-3)Gal(b1-4)GlcNAc
In short: as §1

[9] = biological target: Fuc(a1-2)Gal(b1-4)GlcNAc(b1-3)Gal(b1-4)GlcNAc(b1-3)Gal(b1-4)GlcNAc
In short: as §1

[10] = biological target: Fuc(a1-2)Gal(b1-4)GlcNAc6S
In short: as §1

[11] = biological target: Fuc(a1-2)Gal(b1-4)[Fuc(a1-3)]GlcNAc
In short: as §1

[12] = biological target: Fuc(a1-2)Gal(b1-4)[Fuc(a1-3)]GlcNAc(b1-3)Gal(b1-4)[Fuc(a1-3)]GlcNAc
In short: as §1

[13] = biological target: Fuc(a1-2)Gal(b1-4)[Fuc(a1-3)]GlcNAc(b1-3)Gal(b1-4)[Fuc(a1-3)]GlcNAc(b1-3)Gal(b1-4)[Fuc(a1-3)]GlcNAc
In short: as §1

Fuc(a1-2)Gal6S(b1-4)Glc = biological target: Fuc(a1-2)Gal6S(b1-4)Glc
In short: as §1

[14] = biological target: Fuc(a1-2)Gal6S(b1-4)Glc6S
In short: as §1

[15] = biological target: Fuc(a1-2)Gal6S(b1-4)GlcNAc
In short: as §1

Fuc(a1-2)[Gal(a1-3)]Gal = biological target: Fuc(a1-2)[Gal(a1-3)]Gal
In short: as §1

[16] = biological target: Fuc(a1-2)[Gal(a1-3)]Gal(b1-3)GlcNAc
In short: as §1

[17] = biological target: Fuc(a1-2)[Gal(a1-3)]Gal(b1-4)Glc
In short: as §1

[18] = biological target: Fuc(a1-2)[Gal(a1-3)]Gal(b1-4)GlcNAc
In short: as §1

[19] = biological target: Fuc(a1-2)[Gal(a1-3)]Gal(b1-4)[Fuc(a1-3)]GlcNAc
In short: as §1

[20] = biological target: Fuc(a1-2)[Gal(a1-4)]Gal(b1-4)GlcNAc
In short: as §1

[21] = biological target: Fuc(a1-2)[GalNAc(a1-3)]Gal
In short: as §1

[22] = biological target: Fuc(a1-2)[GalNAc(a1-3)]Gal(b1-3)GlcNAc
In short: as §1

[23] = biological target: Fuc(a1-2)[GalNAc(a1-3)]Gal(b1-4)Glc
In short: as §1

[24] = biological target: Fuc(a1-2)[GalNAc(a1-3)]Gal(b1-4)GlcNAc
In short: as §1

[25] = biological target: Fuc(a1-2)[GalNAc(a1-3)]Gal(b1-4)[Fuc(a1-3)]GlcNAc
In short: as §1

[26] = biological target: Fuc(a1-2)[GalNAc(a1-4)]Gal(b1-4)GlcNAc
In short: as §1

[27] = biological target: Fuc(a1-2)[GalNAc(b1-3)]Gal
In short: as §1

Fuc(a1-3)GlcNAc = biological target: Fuc(a1-3)GlcNAc
In short: as §1

[28] = biological target: Fuc(a1-3)[Gal(b1-4)]Glc6S
In short: as §1

[29] = biological target: Fuc(a1-3)[Gal(b1-4)]GlcNAc
In short: as §1

[30] = biological target: Fuc(a1-3)[Gal(b1-4)]GlcNAc(b1-2)Man(a1-3)[Fuc(a1-3)[Gal(b1-4)]GlcNAc(b1-2)Man(a1-6)]Man(b1-4)GlcNAc(b1-4)GlcNAc
In short: as §1

[31] = biological target: Fuc(a1-3)[Gal(b1-4)]GlcNAc(b1-2)Man(a1-6)[Gal(b1-4)GlcNAc(b1-2)Man(a1-3)]Man(b1-4)GlcNAc(b1-4)GlcNAc
In short: as §1

[32] = biological target: Fuc(a1-3)[Gal(b1-4)]GlcNAc(b1-3)Gal(b1-3)[Fuc(a1-4)]GlcNAc
In short: as §1

[33] = biological target: Fuc(a1-3)[Gal(b1-4)]GlcNAc(b1-4)Gal(b1-4)[Fuc(a1-3)]GlcNAc
In short: as §1

[34] = biological target: Fuc(a1-3)[Gal(b1-4)]GlcNAc(b1-4)Gal(b1-4)[Fuc(a1-3)]GlcNAc(b1-4)Gal(b1-4)[Fuc(a1-3)]GlcNAc
In short: as §1

[35] = biological target: Fuc(a1-3)[Gal(b1-4)]GlcNAc6S
In short: as §1

[36] = biological target: Fuc(a1-3)[Gal3S(b1-4)]Glc6S
In short: as §1

[37] = biological target: Fuc(a1-3)[Gal3S(b1-4)]GlcNAc
In short: as §1

[38] = biological target: Fuc(a1-3)[Gal3S(b1-4)]GlcNAc6S
In short: as §1

[39] = biological target: Fuc(a1-3)[GalNAc(b1-4)]GlcNAc
In short: as §1

Fuc(a1-4)GlcNAc = biological target: Fuc(a1-4)GlcNAc
In short: as §1

Fuc(b1-3)GlcNAc = biological target: Fuc(b1-3)GlcNAc
In short: as §1

Gal(a1-2)Gal = biological target: Gal(a1-2)Gal
In short: as §1

Gal(a1-3)Gal = biological target: Gal(a1-3)Gal
In short: as §1

Gal(a1-3)Gal(b1-3)GlcNAc = biological target: Gal(a1-3)Gal(b1-3)GlcNAc
In short: as §1

Gal(a1-3)Gal(b1-4)Glc = biological target: Gal(a1-3)Gal(b1-4)Glc
In short: as §1

Gal(a1-3)Gal(b1-4)GlcNAc = biological target: Gal(a1-3)Gal(b1-4)GlcNAc
In short: as §1

[40] = biological target: Gal(a1-3)Gal(b1-4)[Fuc(a1-3)]GlcNAc
In short: as §1

Gal(a1-3)GalNAc = biological target: Gal(a1-3)GalNAc
In short: as §1

[41] = biological target: Gal(a1-3)[Gal(a1-4)]Gal(b1-4)GlcNAc
In short: as §1

Gal(a1-4)Gal(b1-4)Glc = biological target: Gal(a1-4)Gal(b1-4)Glc
In short: as §1

Gal(a1-4)Gal(b1-4)GlcNAc = biological target: Gal(a1-4)Gal(b1-4)GlcNAc
In short: as §1

B1: SLLPI (Homo sapiens), Q8IXA5 (protein)
chain: MVSALRGAPLIRVHSSPVSSPSVSGPRRLVSCLSSQSSALSQSGGGSTSAAGIEARSRALRRRWCPAGIMLLALVCLLSCLLPSSEAKLYGRCELARVLHDFGLDGYRGYSLADWVCLAYFTSGFNAAALDYEADGSTNNGIFQINSRRWCSNLTPNVPNVCRMYCSDLLNPNLKDTVICAMKITQEPQGLGYWEAWRHHCQGKDLTEWVDGCDF
glycan array binding signal (z-score) (Fuc(a1-2)Gal): -0.333
glycan array binding signal (z-score) (Fuc(a1-2)Gal(b1-3)GalNAc): -0.368
glycan array binding signal (z-score) [1]: 1.93
glycan array binding signal (z-score) [2]: -0.283
glycan array binding signal (z-score) [3]: -0.194
glycan array binding signal (z-score) (Fuc(a1-2)Gal(b1-3)GlcNAc): -0.188
glycan array binding signal (z-score) [4]: -0.272
glycan array binding signal (z-score) [5]: 0.478
glycan array binding signal (z-score) (Fuc(a1-2)Gal(b1-4)Glc): 0.145
glycan array binding signal (z-score) (Fuc(a1-2)Gal(b1-4)Glc6S): -0.173
glycan array binding signal (z-score) (Fuc(a1-2)Gal(b1-4)GlcNAc): -0.326
glycan array binding signal (z-score) [6]: -0.63
glycan array binding signal (z-score) [7]: -0.49
glycan array binding signal (z-score) [8]: 0.263
glycan array binding signal (z-score) [9]: 0.386
glycan array binding signal (z-score) [10]: -0.264
glycan array binding signal (z-score) [11]: -0.396
glycan array binding signal (z-score) [12]: -0.373
glycan array binding signal (z-score) [13]: -0.258
glycan array binding signal (z-score) (Fuc(a1-2)Gal6S(b1-4)Glc): -0.133
glycan array binding signal (z-score) [14]: 0.738
glycan array binding signal (z-score) [15]: 0.21
glycan array binding signal (z-score) (Fuc(a1-2)[Gal(a1-3)]Gal): 0.276
glycan array binding signal (z-score) [16]: 0.113
glycan array binding signal (z-score) [17]: -0.49
glycan array binding signal (z-score) [18]: -0.244
glycan array binding signal (z-score) [19]: 0.447
glycan array binding signal (z-score) [20]: -0.38
glycan array binding signal (z-score) [21]: 0.008
glycan array binding signal (z-score) [22]: -0.048
glycan array binding signal (z-score) [23]: -0.385
glycan array binding signal (z-score) [24]: -0.22
glycan array binding signal (z-score) [25]: 0.139
glycan array binding signal (z-score) [26]: -0.013
glycan array binding signal (z-score) [27]: -0.12
glycan array binding signal (z-score) (Fuc(a1-3)GlcNAc): -0.25
glycan array binding signal (z-score) [28]: -0.301
glycan array binding signal (z-score) [29]: 1.31
glycan array binding signal (z-score) [30]: 1.2
glycan array binding signal (z-score) [31]: -0.298
glycan array binding signal (z-score) [32]: -0.385
glycan array binding signal (z-score) [33]: -0.051
glycan array binding signal (z-score) [34]: -0.391
glycan array binding signal (z-score) [35]: 0.695
glycan array binding signal (z-score) [36]: 1.65
glycan array binding signal (z-score) [37]: 0.407
glycan array binding signal (z-score) [38]: 1.31
glycan array binding signal (z-score) [39]: 0.02
glycan array binding signal (z-score) (Fuc(a1-4)GlcNAc): -0.545
glycan array binding signal (z-score) (Fuc(b1-3)GlcNAc): -0.512
glycan array binding signal (z-score) (Gal(a1-2)Gal): 0.011
glycan array binding signal (z-score) (Gal(a1-3)Gal): 0.116
glycan array binding signal (z-score) (Gal(a1-3)Gal(b1-3)GlcNAc): -0.17
glycan array binding signal (z-score) (Gal(a1-3)Gal(b1-4)Glc): -0.234
glycan array binding signal (z-score) (Gal(a1-3)Gal(b1-4)GlcNAc): -0.505
glycan array binding signal (z-score) [40]: 0.302
glycan array binding signal (z-score) (Gal(a1-3)GalNAc): 0.227
glycan array binding signal (z-score) [41]: 0.947
glycan array binding signal (z-score) (Gal(a1-4)Gal(b1-4)Glc): 0.048
glycan array binding signal (z-score) (Gal(a1-4)Gal(b1-4)GlcNAc): -0.314
